Measurements reported in PubChem BioAssay AID504774 (Drosophila RNAi Screening Center, 2011).
In all, the deposit lists about 23,000 reagents; shown is an unselected part of those with a known target gene and a result. 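Values are quantile-normalised luminescence on an arbitrary scale; higher means more cells surviving MMS.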 Names joined by + are all predicted targets of the reagent. Reagent sequences are not shown.

- Aim: 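Fly genes whose loss alters survival after alkylation damage to DNA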 (primary screen)
- Cells: Drosophila Kc167 cells
- Reagent: long dsRNA against Drosophila genes, about 0.25 µg dsRNA per well
- Time to read-out: about 6 days: 3 days knock-down, then 3 days with or without MMS
- Challenge: methyl methanesulphonate 0.004% (w/v) for 3 days after knock-down
- Measured: 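ATP-dependent luminescence as a measure of live cells in MMS-exposed wells, quantile normalised within each plate, with replicate values also given as a mean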
- Scale: mean viability with MMS and viability with MMS: higher = more surviving cells after MMS

The opening 7 entries, to show the layout:
mean viability with MMS,"viability with MMS, replicate 1","viability with MMS, replicate 2",gene knocked down,dsRNA
3.54e6,4.01e6,4.02e6,CG15357,DRSC00387
3.10e6,3.46e6,2.70e6,CG9328,DRSC03203
3.69e6,4.02e6,4.25e6,pum,DRSC12722
3.40e6,3.95e6,3.76e6,pum,DRSC12726
3.40e6,4.10e6,4.00e6,pum,DRSC17037
3.43e6,3.87e6,3.94e6,pum,DRSC17038
3.56e6,4.02e6,4.02e6,pum,DRSC22758

The listing, repeating the preview:
mean viability with MMS,"viability with MMS, replicate 1","viability with MMS, replicate 2",gene knocked down,dsRNA
3.54e6,4.01e6,4.02e6,CG15357,DRSC00387
3.10e6,3.46e6,2.70e6,CG9328,DRSC03203
3.69e6,4.02e6,4.25e6,pum,DRSC12722
3.40e6,3.95e6,3.76e6,pum,DRSC12726
3.40e6,4.10e6,4.00e6,pum,DRSC17037
3.43e6,3.87e6,3.94e6,pum,DRSC17038
3.56e6,4.02e6,4.02e6,pum,DRSC22758
3.58e6,4.21e6,3.90e6,pum,DRSC22794
3.68e6,4.20e6,4.10e6,CG9590,DRSC16506
2.76e6,3.10e6,3.03e6,RpS2,DRSC03614
1.98e6,3.96e6,,CG13678,DRSC10036
3.62e6,3.90e6,4.32e6,Lztr1,DRSC18176
3.54e6,3.97e6,4.07e6,Lztr1,DRSC18647
3.36e6,3.80e6,3.82e6,ATbp,DRSC20906
3.59e6,4.20e6,3.92e6,CG15252,DRSC17981
3.77e6,4.28e6,4.32e6,Iris,DRSC00663
3.66e6,4.13e6,4.16e6,CG31473,DRSC15443
3.57e6,4.00e6,4.06e6,Or45a,DRSC07487
3.50e6,3.91e6,3.99e6,Anp,DRSC14112
3.26e6,3.67e6,3.72e6,Eip75B,DRSC11161
3.46e6,3.99e6,3.88e6,Eip75B,DRSC23047
3.43e6,3.89e6,3.97e6,HSPC300,DRSC22880
3.39e6,3.91e6,4.02e6,CG10102 (retired record),DRSC05963
3.93e6,4.41e6,4.46e6,Golgin245,DRSC04374
3.64e6,4.16e6,4.04e6,Golgin245,DRSC22012
3.59e6,4.07e6,4.05e6,CG7914,DRSC20068
3.43e6,3.93e6,3.89e6,CG30008,DRSC21576
3.50e6,4.29e6,3.67e6,CG15578,DRSC18066
3.60e6,4.05e6,4.12e6,CG2003,DRSC15411
3.34e6,3.83e6,3.78e6,CG3078,DRSC18531
3.34e6,3.69e6,3.82e6,Liprin-beta,DRSC09795
2.70e6,2.52e6,3.41e6,Liprin-beta,DRSC23339
3.54e6,4.06e6,3.94e6,CG2772,DRSC00530
3.49e6,3.99e6,3.94e6,CG31437,DRSC13711
3.47e6,3.92e6,3.94e6,CG3604,DRSC00618
3.58e6,4.05e6,4.07e6,CG1092,DRSC12151
3.61e6,4.09e6,4.09e6,Dhc16F,DRSC20242
3.64e6,4.12e6,4.10e6,CG4998,DRSC10466
3.53e6,4.01e6,3.99e6,CG4998,DRSC22911
3.58e6,4.04e6,4.08e6,CG42568 + DnaJ-60,DRSC04207
3.48e6,3.82e6,3.97e6,CG42568 + DnaJ-60,DRSC04611
3.58e6,4.07e6,4.03e6,elB,DRSC01379
3.64e6,4.10e6,4.13e6,elB,DRSC03527
3.56e6,4.09e6,3.97e6,FucTD,DRSC08634
3.84e6,4.40e6,4.23e6,CG12384,DRSC06145
3.45e6,3.98e6,3.86e6,Rab39,DRSC17827
3.55e6,4.08e6,3.97e6,CG15097,DRSC06526
3.51e6,3.98e6,3.95e6,CG3407,DRSC00603
3.73e6,4.26e6,4.21e6,CheA87a,DRSC14839
3.58e6,4.23e6,3.89e6,CG33258,DRSC09415
3.10e6,3.65e6,2.68e6,Cpes,DRSC04475
3.47e6,3.96e6,3.92e6,CG5107,DRSC15716
3.65e6,4.02e6,4.24e6,vex,DRSC19481
3.69e6,4.11e6,4.20e6,vex,DRSC19651
3.51e6,4.11e6,3.85e6,vex,DRSC21843
3.55e6,4.03e6,4.01e6,Spn43Ab,DRSC06781
3.34e6,3.87e6,3.75e6,CG11694,DRSC14354
3.49e6,4.04e6,3.90e6,Gpa2,DRSC21071
3.38e6,3.84e6,3.85e6,MTA1-like,DRSC12382
3.55e6,4.06e6,3.98e6,MTA1-like,DRSC22022
3.33e6,3.73e6,3.78e6,Ing5,DRSC03188
3.54e6,4.04e6,3.99e6,Sec10,DRSC17053
3.61e6,4.09e6,4.06e6,Syt12,DRSC19359
3.53e6,4.05e6,4.17e6,eater,DRSC15969
3.34e6,3.80e6,3.94e6,eater,DRSC22254
3.53e6,4.08e6,3.93e6,DIP2,DRSC08582
3.44e6,3.84e6,3.94e6,CG9961,DRSC00738
3.28e6,3.57e6,3.85e6,CG9961,DRSC23343
